From article PMC7176688
Like-named read-outs stand apart in the source and are kept apart here. Results are given in words; binding and its absence hold for the method and conditions named. In cells and extracts the contact can be indirect. A yes stands for co-enrichment or nearness to the bait. Other partners may have been found. For some assays here: A no says only that the protein was not detected with the bait.

By UniProt entry, the sequences of proteins in these tests, tags left out. Where a name states a change or a piece, a line headed by the entry shows the natural chain unless it says otherwise.
UniProt P48730: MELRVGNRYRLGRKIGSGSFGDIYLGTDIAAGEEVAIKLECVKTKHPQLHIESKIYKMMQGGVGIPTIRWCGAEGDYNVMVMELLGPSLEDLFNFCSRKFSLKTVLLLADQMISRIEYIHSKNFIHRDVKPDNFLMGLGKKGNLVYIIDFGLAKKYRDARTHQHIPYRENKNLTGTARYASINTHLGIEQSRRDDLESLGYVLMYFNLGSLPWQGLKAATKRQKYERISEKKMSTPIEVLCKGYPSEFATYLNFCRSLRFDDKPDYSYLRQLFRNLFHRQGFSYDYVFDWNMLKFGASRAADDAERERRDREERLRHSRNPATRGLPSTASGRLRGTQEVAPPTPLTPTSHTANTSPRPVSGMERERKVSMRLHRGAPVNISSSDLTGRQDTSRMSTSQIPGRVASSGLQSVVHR
UniProt P49674: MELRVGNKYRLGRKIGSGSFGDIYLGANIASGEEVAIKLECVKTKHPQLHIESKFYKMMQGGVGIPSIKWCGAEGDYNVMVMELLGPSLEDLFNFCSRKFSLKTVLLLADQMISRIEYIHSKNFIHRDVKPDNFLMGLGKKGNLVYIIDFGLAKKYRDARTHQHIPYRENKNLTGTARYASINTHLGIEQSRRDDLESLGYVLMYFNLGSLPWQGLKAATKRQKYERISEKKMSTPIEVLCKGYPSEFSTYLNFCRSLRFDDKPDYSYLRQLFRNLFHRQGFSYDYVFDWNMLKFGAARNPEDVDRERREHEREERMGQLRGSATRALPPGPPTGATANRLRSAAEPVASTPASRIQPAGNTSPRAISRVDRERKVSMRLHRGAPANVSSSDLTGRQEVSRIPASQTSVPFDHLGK
UniProt Q99996: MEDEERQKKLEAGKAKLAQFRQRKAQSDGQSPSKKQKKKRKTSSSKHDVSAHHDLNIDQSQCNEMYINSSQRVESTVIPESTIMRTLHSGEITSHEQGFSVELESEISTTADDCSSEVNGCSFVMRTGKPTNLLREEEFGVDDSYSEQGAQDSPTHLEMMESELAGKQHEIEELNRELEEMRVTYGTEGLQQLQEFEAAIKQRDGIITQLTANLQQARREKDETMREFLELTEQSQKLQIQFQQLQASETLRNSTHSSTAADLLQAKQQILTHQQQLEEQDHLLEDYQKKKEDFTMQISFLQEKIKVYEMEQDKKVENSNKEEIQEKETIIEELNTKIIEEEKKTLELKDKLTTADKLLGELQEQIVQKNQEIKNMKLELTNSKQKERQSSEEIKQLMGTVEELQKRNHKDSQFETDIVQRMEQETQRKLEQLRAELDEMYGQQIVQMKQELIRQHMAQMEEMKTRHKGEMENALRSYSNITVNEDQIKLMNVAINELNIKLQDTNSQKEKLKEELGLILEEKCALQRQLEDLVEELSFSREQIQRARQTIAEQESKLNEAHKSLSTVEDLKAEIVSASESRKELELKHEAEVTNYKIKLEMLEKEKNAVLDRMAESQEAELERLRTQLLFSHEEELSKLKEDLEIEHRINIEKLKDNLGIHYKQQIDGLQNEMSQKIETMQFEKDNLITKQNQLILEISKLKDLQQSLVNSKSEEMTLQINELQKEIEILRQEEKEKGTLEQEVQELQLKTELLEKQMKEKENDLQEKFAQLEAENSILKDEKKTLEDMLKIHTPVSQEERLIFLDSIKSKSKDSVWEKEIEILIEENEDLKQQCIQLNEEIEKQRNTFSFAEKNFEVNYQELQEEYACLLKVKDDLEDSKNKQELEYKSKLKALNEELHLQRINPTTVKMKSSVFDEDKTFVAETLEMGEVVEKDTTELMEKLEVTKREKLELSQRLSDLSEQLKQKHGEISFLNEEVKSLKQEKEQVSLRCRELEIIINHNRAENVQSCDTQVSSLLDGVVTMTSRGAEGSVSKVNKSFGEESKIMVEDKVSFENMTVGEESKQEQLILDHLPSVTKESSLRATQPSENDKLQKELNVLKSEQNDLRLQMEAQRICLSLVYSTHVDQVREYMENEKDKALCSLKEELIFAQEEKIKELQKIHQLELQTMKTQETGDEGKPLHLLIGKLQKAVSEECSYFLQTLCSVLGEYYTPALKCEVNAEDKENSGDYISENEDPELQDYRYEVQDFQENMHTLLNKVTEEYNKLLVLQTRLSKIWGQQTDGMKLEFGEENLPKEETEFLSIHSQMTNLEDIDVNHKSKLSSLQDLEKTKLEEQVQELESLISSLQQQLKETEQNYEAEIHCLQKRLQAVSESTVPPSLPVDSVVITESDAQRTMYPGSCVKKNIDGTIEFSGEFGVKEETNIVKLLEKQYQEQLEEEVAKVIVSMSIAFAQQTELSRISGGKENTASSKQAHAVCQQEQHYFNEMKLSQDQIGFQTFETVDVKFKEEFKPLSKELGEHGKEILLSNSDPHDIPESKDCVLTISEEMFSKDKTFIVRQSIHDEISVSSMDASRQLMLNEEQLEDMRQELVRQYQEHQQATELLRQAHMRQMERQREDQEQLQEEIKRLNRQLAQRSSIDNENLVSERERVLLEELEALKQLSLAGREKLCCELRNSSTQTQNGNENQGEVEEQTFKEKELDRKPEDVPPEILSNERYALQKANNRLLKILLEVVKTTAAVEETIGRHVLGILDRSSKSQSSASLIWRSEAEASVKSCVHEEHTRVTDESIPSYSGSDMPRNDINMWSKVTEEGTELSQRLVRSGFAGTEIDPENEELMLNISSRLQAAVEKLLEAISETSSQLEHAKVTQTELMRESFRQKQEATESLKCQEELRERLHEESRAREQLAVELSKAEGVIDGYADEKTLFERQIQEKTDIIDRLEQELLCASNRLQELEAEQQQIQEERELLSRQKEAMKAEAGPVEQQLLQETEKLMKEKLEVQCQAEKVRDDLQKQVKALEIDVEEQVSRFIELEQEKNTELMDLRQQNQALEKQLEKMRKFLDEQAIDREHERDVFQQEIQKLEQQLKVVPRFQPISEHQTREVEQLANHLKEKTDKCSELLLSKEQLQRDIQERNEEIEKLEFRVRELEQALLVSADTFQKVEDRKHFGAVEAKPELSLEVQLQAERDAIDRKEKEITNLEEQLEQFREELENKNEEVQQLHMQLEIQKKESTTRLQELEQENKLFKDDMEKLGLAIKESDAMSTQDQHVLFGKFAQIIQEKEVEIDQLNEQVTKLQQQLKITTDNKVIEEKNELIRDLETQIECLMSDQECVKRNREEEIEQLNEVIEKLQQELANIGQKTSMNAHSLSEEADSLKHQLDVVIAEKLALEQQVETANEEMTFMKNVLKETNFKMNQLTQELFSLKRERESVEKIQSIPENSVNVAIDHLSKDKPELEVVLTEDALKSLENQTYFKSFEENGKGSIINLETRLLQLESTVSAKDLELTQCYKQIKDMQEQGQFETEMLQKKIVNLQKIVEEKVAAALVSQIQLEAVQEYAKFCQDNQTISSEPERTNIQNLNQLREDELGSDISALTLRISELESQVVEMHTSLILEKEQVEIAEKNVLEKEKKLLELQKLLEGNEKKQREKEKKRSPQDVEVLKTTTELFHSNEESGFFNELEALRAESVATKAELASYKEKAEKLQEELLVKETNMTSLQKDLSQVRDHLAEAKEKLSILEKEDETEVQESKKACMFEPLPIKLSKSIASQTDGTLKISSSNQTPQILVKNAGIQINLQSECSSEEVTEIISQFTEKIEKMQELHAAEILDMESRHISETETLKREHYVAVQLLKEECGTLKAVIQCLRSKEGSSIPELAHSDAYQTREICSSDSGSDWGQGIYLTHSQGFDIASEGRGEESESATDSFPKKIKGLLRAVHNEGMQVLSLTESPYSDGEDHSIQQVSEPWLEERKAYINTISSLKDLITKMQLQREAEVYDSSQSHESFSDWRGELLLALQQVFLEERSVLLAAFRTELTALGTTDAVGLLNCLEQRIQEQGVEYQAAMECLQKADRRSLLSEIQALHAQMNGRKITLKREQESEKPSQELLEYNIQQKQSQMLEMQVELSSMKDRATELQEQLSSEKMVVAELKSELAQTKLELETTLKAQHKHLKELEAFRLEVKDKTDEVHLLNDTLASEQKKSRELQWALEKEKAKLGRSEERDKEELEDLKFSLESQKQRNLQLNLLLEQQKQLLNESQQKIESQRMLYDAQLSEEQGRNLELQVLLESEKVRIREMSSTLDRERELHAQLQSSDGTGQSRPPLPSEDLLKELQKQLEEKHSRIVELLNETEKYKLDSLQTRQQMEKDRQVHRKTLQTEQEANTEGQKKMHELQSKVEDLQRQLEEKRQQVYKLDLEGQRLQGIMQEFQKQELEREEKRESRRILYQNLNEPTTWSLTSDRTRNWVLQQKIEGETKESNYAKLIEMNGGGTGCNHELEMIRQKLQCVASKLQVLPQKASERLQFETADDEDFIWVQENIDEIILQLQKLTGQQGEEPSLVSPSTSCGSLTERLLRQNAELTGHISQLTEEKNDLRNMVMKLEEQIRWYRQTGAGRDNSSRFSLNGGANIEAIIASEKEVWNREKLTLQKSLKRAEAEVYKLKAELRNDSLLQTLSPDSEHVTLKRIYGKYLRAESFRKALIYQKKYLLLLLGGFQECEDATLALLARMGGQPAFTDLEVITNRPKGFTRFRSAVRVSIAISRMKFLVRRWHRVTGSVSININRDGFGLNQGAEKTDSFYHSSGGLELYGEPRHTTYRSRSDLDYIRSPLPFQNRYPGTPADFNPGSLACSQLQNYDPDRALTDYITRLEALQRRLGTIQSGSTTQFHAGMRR
UniProt O15534: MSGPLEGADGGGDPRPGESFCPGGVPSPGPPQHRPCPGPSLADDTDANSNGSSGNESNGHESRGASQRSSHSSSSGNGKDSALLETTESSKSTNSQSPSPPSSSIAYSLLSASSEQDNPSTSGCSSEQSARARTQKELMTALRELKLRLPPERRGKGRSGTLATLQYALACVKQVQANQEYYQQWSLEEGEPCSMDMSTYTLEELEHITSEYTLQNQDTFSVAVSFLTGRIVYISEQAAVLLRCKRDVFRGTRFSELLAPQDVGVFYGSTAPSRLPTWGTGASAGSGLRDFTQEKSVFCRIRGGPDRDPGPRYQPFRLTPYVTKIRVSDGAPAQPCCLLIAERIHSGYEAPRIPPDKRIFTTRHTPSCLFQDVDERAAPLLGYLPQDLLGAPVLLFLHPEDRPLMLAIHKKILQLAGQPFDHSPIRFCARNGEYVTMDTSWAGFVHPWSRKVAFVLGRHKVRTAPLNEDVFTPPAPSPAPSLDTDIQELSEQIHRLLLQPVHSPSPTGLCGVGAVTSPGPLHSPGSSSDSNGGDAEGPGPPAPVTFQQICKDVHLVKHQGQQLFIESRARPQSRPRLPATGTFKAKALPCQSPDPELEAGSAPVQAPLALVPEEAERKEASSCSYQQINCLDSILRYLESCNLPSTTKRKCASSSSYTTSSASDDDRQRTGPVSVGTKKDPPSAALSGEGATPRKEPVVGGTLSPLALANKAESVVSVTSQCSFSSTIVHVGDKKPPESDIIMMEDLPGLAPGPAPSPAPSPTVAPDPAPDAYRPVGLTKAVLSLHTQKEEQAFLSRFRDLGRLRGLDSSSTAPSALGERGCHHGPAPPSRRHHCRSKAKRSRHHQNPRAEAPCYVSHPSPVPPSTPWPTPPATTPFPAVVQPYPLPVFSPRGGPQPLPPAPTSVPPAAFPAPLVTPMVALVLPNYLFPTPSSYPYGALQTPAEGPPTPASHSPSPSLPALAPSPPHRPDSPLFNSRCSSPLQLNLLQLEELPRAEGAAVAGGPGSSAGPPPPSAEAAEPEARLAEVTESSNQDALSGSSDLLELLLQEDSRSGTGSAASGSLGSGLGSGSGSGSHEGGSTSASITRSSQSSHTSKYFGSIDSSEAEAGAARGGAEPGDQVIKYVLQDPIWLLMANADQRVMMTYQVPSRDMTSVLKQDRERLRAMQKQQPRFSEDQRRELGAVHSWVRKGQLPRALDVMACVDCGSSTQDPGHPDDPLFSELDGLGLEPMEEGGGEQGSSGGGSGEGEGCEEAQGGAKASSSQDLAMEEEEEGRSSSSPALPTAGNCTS

Columns and labels:
Test in all cases: affinity purification with mass spectrometry; CK1δ-VM or CK1ε-VM purified in duplicate from lysates of asynchronous or mitotic HEK293 cells on anti-Flag magnetic beads, then streptavidin beads (0.5% Triton X-100 lysis buffer, washes with 250 mM NaCl); LC-MS/MS; VM alone as control
[1] = target: CK1δ-VM (casein kinase 1 delta, tagged at its endogenous locus with Venus-MAP) (human) (UniProt P48730)
[2] = target: CK1ε-VM (casein kinase 1 epsilon, tagged at its endogenous locus with Venus-MAP) (human) (UniProt P49674)
[3] = target: CK1ε-VM (casein kinase 1 epsilon, tagged at its endogenous locus with Venus-MAP) (human) (UniProt P49674); remark: listed apart in the source

**Q.** What does the source list for “AKAP450, endogenous in HEK293 (from UniProt Q99996 1-3907)”?
**A.** binding [1]: no binding; binding [2]: no binding

**Q.** How did the binding [1] turn out when “Period protein 1, endogenous in HEK293 (from UniProt O15534 1-1290)” was run?
**A.** Its binding is “binds”.

**Q.** And the binding [2]?
**A.** Its binding is “binds”.

B1: GTPase-activating protein and VPS9 domain-containing protein 1 (GAPVD1), endogenous in HEK293 (protein, UniProt Q14C86 1-1478)
chain: MVKLDIHTLAHHLKQERLYVNSEKQLIQRLNADVLKTAEKLYRTAWIAKQQRINLDRLIITSAEASPAECCQHAKILEDTQFVDGYKQLGFQETAYGEFLSRLRENPRLIASSLVAGEKLNQENTQSVIYTVFTSLYGNCIMQEDESYLLQVLRYLIEFELKESDNPRRLLRRGTCAFSILFKLFSEGLFSAKLFLTATLHEPIMQLLVEDEDHLETDPNKLIERFSPSQQEKLFGEKGSDRFRQKVQEMVESNEAKLVALVNKFIGYLKQNTYCFPHSLRWIVSQMYKTLSCVDRLEVGEVRAMCTDLLLACFICPAVVNPEQYGIISDAPINEVARFNLMQVGRLLQQLAMTGSEEGDPRTKSSLGKFDKSCVAAFLDVVIGGRAVETPPLSSVNLLEGLSRTVVYITYSQLITLVNFMKSVMSGDQLREDRMALDNLLANLPPAKPGKSSSLEMTPYNTPQLSPATTPANKKNRLPIATRSRSRTNMLMDLHMDHEGSSQETIQEVQPEEVLVISLGTGPQLTPGMMSENEVLNMQLSDGGQGDVPVDENKLHGKPDKTLRFSLCSDNLEGISEGPSNRSNSVSSLDLEGESVSELGAGPSGSNGVEALQLLEHEQATTQDNLDDKLRKFEIRDMMGLTDDRDISETVSETWSTDVLGSDFDPNIDEDRLQEIAGAAAENMLGSLLCLPGSGSVLLDPCTGSTISETTSEAWSVEVLPSDSEAPDLKQEERLQELESCSGLGSTSDDTDVREVSSRPSTPGLSVVSGISATSEDIPNKIEDLRSECSSDFGGKDSVTSPDMDEITHGAHQLTSPPSQSESLLAMFDPLSSHEGASAVVRPKVHYARPSHPPPDPPILEGAVGGNEARLPNFGSHVLTPAEMEAFKQRHSYPERLVRSRSSDIVSSVRRPMSDPSWNRRPGNEERELPPAAAIGATSLVAAPHSSSSSPSKDSSRGETEERKDSDDEKSDRNRPWWRKRFVSAMPKAPIPFRKKEKQEKDKDDLGPDRFSTLTDDPSPRLSAQAQVAEDILDKYRNAIKRTSPSDGAMANYESTGDNHDRDLSSKLLYHSDKEVMGDGESAHDSPRDEALQNISADDLPDSASQAAHPQDSAFSYRDAKKKLRLALCSADSVAFPVLTHSTRNGLPDHTDPEDNEIVCFLKVQIAEAINLQDKNLMAQLQETMRCVCRFDNRTCRKLLASIAEDYRKRAPYIAYLTRCRQGLQTTQAHLERLLQRVLRDKEVANRYFTTVCVRLLLESKEKKIREFIQDFQKLTAADDKTAQVEDFLQFLYGAMAQDVIWQNASEEQLQDAQLAIERSVMNRIFKLAFYPNQDGDILRDQVLHEHIQRLSKVVTANHRALQIPEVYLREAPWPSAQSEIRTISAYKTPRDKVQCILRMCSTIMNLLSLANEDSVPGADDFVPVLVFVLIKANPPCLLSTVQYISSFYASCLSGEESYWWMQFTAAVEFIKTIDDRK
**Q.** How did the binding [3] turn out when B1 was run?
**A.** Its binding is “binds”.
